Results are given in words; binding and its absence hold for the method and conditions named. Some binding calls cover weakened binding; strength is not graded here.
Molecular target: T1, VEGF165 (recombinant, produced by transfected HEK293 cells) (human), P15692
T1 chain: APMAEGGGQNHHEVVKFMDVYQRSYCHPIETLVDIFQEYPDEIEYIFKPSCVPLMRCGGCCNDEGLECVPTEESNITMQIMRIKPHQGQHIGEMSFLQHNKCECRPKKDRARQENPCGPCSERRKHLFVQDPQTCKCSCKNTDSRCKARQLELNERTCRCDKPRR
Assay: Western blot of conditioned media from transfected HEK293 cells
Details: remark: other sources report otherwise

B1: VEGF165 (recombinant, produced by transfected HEK293 cells), P15692 207-395 (ligand)
chain: T1 chain
For B1, the binding was “binds”.
